These are yes or no findings as the source states them, for the method shown. A result given as binding can be weak or reduced; the word gives no strength. Tags and fused reporters may be left off the sequences shown. For some assays here: Binding seen in cells or lysates may run through a third protein.

The record followed here is PMC5222566, “The Ciliopathy-Associated Cep104 Protein Interacts with Tubulin and Nek1 Kinase” (Structure(London, England:1993), 2017).

Assay [1] addresses T1, GST-Cep104^746-875 (ZNF) (human) (UniProt O60308).
T1 sequence: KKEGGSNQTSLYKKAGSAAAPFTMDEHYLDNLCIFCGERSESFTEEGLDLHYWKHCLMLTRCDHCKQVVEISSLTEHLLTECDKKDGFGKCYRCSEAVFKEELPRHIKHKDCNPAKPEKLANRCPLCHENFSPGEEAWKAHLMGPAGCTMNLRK
The assay is described as follows: pull-down; competition: GST-Cep104^746-875 beads, Hek293 lysate with 3xFLAG-Nek1 mixed with increasing amounts of recombinant CP110^906-936; anti-FLAG western blot; only the target purified.

For assay [2], the target named is T1, GST-Cep104^746-875 (ZNF) (human). In words: pull-down; 30 ug GST-Cep104^746-875 on Glutathione Sepharose 4B; cleared Hek293 lysates with 3xFLAG Nek1 constructs, 1 h 4°C; 50 mM Na-phosphate pH 7.5, 100 mM NaCl, 1 mM DTT, 0.1% NP-40; anti-FLAG western blot; only the target purified. Background: In western blotting, separated proteins are transferred to a membrane and probed.

The target in assay [3] is T2, Cep104 (yeast two-hybrid fusion) (human) (UniProt O60308).
T2 sequence: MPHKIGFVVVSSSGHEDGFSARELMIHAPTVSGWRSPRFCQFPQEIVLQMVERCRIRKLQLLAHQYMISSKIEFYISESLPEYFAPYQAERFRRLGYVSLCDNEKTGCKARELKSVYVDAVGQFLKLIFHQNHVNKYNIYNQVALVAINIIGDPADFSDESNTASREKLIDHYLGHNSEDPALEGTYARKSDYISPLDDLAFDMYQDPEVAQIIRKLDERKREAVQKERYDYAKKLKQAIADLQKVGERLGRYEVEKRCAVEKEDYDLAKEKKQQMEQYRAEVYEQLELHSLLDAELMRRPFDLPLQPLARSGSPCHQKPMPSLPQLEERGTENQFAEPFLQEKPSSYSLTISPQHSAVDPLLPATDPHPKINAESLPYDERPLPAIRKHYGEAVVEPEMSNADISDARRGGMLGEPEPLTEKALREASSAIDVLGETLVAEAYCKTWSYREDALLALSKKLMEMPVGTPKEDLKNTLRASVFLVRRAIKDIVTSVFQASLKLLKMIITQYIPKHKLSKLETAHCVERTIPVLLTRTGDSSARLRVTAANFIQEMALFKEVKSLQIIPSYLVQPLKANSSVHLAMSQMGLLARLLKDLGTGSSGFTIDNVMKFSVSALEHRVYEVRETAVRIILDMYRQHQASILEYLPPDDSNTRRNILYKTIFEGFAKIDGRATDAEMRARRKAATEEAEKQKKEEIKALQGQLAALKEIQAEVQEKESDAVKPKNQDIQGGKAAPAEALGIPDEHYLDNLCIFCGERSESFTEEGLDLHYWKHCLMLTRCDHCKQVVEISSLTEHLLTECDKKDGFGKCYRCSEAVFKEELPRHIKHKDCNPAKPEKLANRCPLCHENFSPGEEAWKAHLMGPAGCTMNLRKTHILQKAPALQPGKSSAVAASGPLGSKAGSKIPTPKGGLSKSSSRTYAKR
The assay is described as follows: two-hybrid; yeast MaV203, pDEST32 bait and pDEST22 prey; growth on SC -Ura, 3 days 30°C.

In assay [4] the target is T1, GST-Cep104^746-875 (ZNF) (human). The assay is described as follows: pull-down; in vitro: 30 ug GST-Cep104^746-875 on Glutathione Sepharose 4B; Nek1^451-677 (26 uM), CP110^906-936 (66 uM), D. rerio STIL^404-448 (127 uM) or binary combinations, 1 h 4°C; PBS, 0.1% IGEPAL CA-630, 1 mM DTT; Coomassie gel; both purified.

3xFLAG-tagged human Nek1 (enzyme): the binding entry in assay [1] and in assay [2] was “binds” throughout. For the substance “3xFLAG-tagged human Nek1 coiled-coil domain construct (domain or fragment)”, in assay [2], the binding entry is listed as “binds”. “Nek1 (yeast two-hybrid fusion) (human) (enzyme)”: the binding entry in assay [3] was “binds”. Take human Nek1^451-677 (domain or fragment): the binding entry in assay [4] is given as “binds”.
